# PubChem BioAssay AID504467 (National Center for Advancing Translational Sciences (NCATS), 2011)
# Hit rate of the full screen: of about 330,000 compounds, about 7,700 (2.3%) were called active. This list was built around the results that the source calls inconclusive (neither active nor inactive); the mix of calls is not that of the screen. The call rests on the fitted dose curve; in most records, active means well fitted inhibition curve with a large enough effect; inconclusive means small, poorly fitted or top-dose-only effect, or effect the other way; inactive means flat fitted curve, though single readings scatter. Where the call is inconclusive, the potency comes from a doubtful curve fit.
# Assay: qHTS screen for small molecules that inhibit ELG1-dependent DNA repair in human embryonic kidney (HEK293T) cells expressing luciferase-tagged ELG1; further: nearly all actives have a fitted effect of over 55% in size
# Settings: HEK293T ELG1-luciferase reporter, luminescence, 16 h, DNA damage induced by 5-fluorouridine; activity change, negative = inhibition: at 46.1 µM (top of the series)
# Outline: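 Reporter activity after DNA damage by 5-fluorouridine is monitored. Compound-treated cells incubate 16 hr at 37 °C, then ONE-Glo is added for 30 min before luminescence reading.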
# On the % scale 0 is the no-effect control and ±100 the full control effect; potency means the concentration at half of the fitted maximal effect.
SMILES,"activity change, negative = inhibition",Potency
CN(C(=O)c1cccc(S(=O)(=O)N2CCCC2)c1)C1CCCCC1,inactive: 16.2%,–
CC(=O)NC(c1cccc([N+](=O)[O-])c1)c1ccc2cccnc2c1O (centres undefined),–,"inconclusive: 1 µM [inhibitor, single point]"
c1ccc(CCc2nc3ccccc3[nH]2)cc1,–,"inconclusive: 20.6 µM [activator, partial curve]"
CC(C)NC(=S)N1CCC(Cc2ccccc2)CC1,inactive: -2.7%,–
Cn1c(N)c(C(=O)c2cc(-c3ccccn3)nc3ccccc23)c(=O)[nH]c1=O,–,"inconclusive: 20 µM [activator, single point]"
CCOC(=O)c1c(NC(=O)CSc2nc3ccc(C)cc3[nH]2)sc2c1CC(C)(C)NC2(C)C,inactive: 15.8%,–
CC(=O)Nc1ccc(/C=C/C(=O)c2ccccc2)cc1,–,"inconclusive: 20.6 µM [activator, partial curve]"
CSc1nsc(SCC(=O)Nc2ccc(OC(C)=O)cc2)n1,–,"inconclusive: 18.3 µM [activator, partial curve]"
Cc1ccc(Cn2cccc(NC(=O)CCC3CCCC3)c2=O)cc1,–,"inconclusive: 18.3 µM [inhibitor, partial curve, poor fit]"
CC(C)C1=NN(C(=O)c2ccccc2)C(O)(C(C)(C)C)C1 (centres undefined),–,"inconclusive: 8.2 µM [activator, partial curve, poor fit]"
COCCNC(=O)c1cc(OC)c(OC)cc1[N+](=O)[O-],inactive: 3.71%,–
Cc1cccc(C(=O)NCc2nnc(SCC(=O)NC3CCCC3)n2C)c1,–,"inconclusive: 29.1 µM [activator, single point]"
O=S(=O)(/N=C(/Nc1cccnc1Cl)c1ccccc1)c1ccccc1,inactive: 0.0679%,–
CCc1c(C)sc2nc(C(C)C)nc(SCC(=O)N3CCc4ccccc4C3)c12,inactive: -0.0141%,–
CCOc1ccc(NC(=O)c2ccc3c(=O)n(-c4ccc(OC)cc4OC)c(=S)[nH]c3c2)cc1,–,active: 8.2 µM
CC[C@@H](C)C(NC(=O)OC(C)(C)C)c1cn([C@@H](Cc2cc3ccccc3[nH]2)C(=O)N2CCN(C(=O)OC(C)(C)C)CC2)nn1 (some centres undefined),–,"inconclusive: 20.6 µM [inhibitor, single point]"
CC(C)c1nnc(NC(=O)CCC2CCCCC2)s1,–,"inconclusive: 18.3 µM [activator, partial curve]"
COc1cc(=O)[nH]c(SC(C)C(=O)Nc2ccc3ccccc3c2)n1 (centres undefined),inactive: -1.75%,–
Cc1sc2ncnc(SCc3ccc(C(=O)O)cc3)c2c1C,inactive: 0.0681%,–
Cc1ccc(C)c(C(=O)CSc2nnc(C)s2)c1,–,"inconclusive: 20.6 µM [activator, single point]"
O=C(CN1CCN(S(=O)(=O)c2ccccc2)CC1)Nc1ccc(Cl)c([N+](=O)[O-])c1,–,"inconclusive: 18.3 µM [inhibitor, partial curve]"
O=C(N/N=C(\Cc1ncc[nH]1)c1ccccc1)c1cccnc1,–,active: 9.2 µM
COc1cc(NC(=O)Cc2ccccc2)cc(OC)c1,inactive: -21.6%,–

# Reprinted at random: 4 records from the list
SMILES,"activity change, negative = inhibition",Potency
CN(C(=O)c1cccc(S(=O)(=O)N2CCCC2)c1)C1CCCCC1,inactive: 16.2%,–
Cc1cccc(C(=O)NCc2nnc(SCC(=O)NC3CCCC3)n2C)c1,–,"inconclusive: 29.1 µM [activator, single point]"
CC(C)C1=NN(C(=O)c2ccccc2)C(O)(C(C)(C)C)C1 (centres undefined),–,"inconclusive: 8.2 µM [activator, partial curve, poor fit]"
CCOc1ccc(NC(=O)c2ccc3c(=O)n(-c4ccc(OC)cc4OC)c(=S)[nH]c3c2)cc1,–,active: 8.2 µM

# Later entries

SMILES,"activity change, negative = inhibition",Potency
CC(C(=O)Nc1ccccc1-c1ccccc1)N(C)Cc1nc2ccccc2c(=O)[nH]1 (centres undefined),–,"inconclusive: 18.3 µM [inhibitor, single point]"
CCCOc1ccc(C2c3c(oc4ccccc4c3=O)C(=O)N2CCCN2CCOCC2)cc1 (centres undefined),–,"inconclusive: 16.4 µM [activator, single point]"
CCOC(=O)CN(C(=O)COc1nc(-c2ccccc2)cc(C)c1C#N)c1ccc(C)cc1,–,"inconclusive: 29.1 µM [inhibitor, single point]"
COc1ccc(CCC(=O)NNC(=O)c2ccccn2)cc1OC,inactive: 3.13%,–
COc1ccccc1[C@H]1C(c2cccc(Cl)c2)=NN(c2ccccc2)[C@@H]1CO,–,"inconclusive: 18.3 µM [inhibitor, single point]"
CCCOCn1cc(F)c(=O)[nH]c1=O,inactive: 6.2%,–
CC(C)(C)OC(=O)CN1C(=O)S/C(=C\c2ccc(-c3cccc(C(=O)O)c3)o2)C1=O,–,"inconclusive: 18.3 µM [activator, partial curve]"
Cc1ccc(-c2csc3ncnc(-n4nnc5ccccc54)c23)cc1C,–,"inconclusive: 29.1 µM [inhibitor, single point]"
COC(=O)c1cccc(NC(=O)c2ccc3c(c2)C(=O)N(Cc2cccnc2)C3=O)c1C,inactive: 12.7%,–
c1ccc2c(NCCc3c[nH]c4ccccc34)c3ccccc3nc2c1,–,"inconclusive: 32.6 µM [inhibitor, single point]"
O=C(NCc1ccccn1)Nc1ccccc1Cl,–,"inconclusive: 18.3 µM [activator, partial curve]"
COc1ccc2c(c1)CCc1sc(NC(=O)c3ccc(C)cc3)nc1-2,–,"inconclusive: 35.5 µM [inhibitor, single point]"
CC(=O)Nc1cc2c3c(c1)CCC(=O)N3CCC2,inactive: 1.74%,–
Cc1ccc(CCNC(=O)c2nnn(-c3cccc(C)c3)c2N)cc1,–,"inconclusive: 29.1 µM [inhibitor, single point]"
Nc1nnc(N2CCc3ccccc32)s1,–,"inconclusive: 0.517 µM [inhibitor, partial curve, poor fit]"
COc1ccc(C(=O)Nc2ccc(-c3ccc(NC(=O)c4ccc(OC)cc4)c(OC)c3)cc2OC)cc1,inactive: 14.4%,–
Nc1c(C(=O)Nc2nccs2)sc2nc(-c3cccs3)cc(C(F)(F)F)c12,inactive: -0.22%,–
Cc1nc2ccccc2nc1NS(=O)(=O)c1ccc(N)cc1,–,"inconclusive: 5.17 µM [inhibitor, full curve, poor fit]"
COc1ccc(-c2cn3c(C)c(C(=O)N4CCc5ccccc5C4)sc3n2)cc1,–,"inconclusive: 29.1 µM [inhibitor, single point]"
O=C(Nc1nc2cc3c(cc2s1)OCCO3)c1ccc([N+](=O)[O-])o1,–,"inconclusive: 5.17 µM [activator, partial curve]"
N#C/C(C(=O)c1ccccc1)=C1/SC=C(N)N1c1ccccc1,–,"inconclusive: 18.4 µM [activator, single point]"
COc1cccc(OCc2nnc(SCc3cc(=O)[nH]c4ccccc34)o2)c1,–,"inconclusive: 23.1 µM [inhibitor, partial curve, poor fit]"
CCCCNC(=O)Cc1c(OC)ccc2cc(Br)ccc12,–,"inconclusive: 2.59 µM [inhibitor, partial curve, poor fit]"

SMILES,"activity change, negative = inhibition",Potency
CCCN1CCC(=O)N([C@H](CSc2ccc(OC)cc2)CC(C)C)CC1,–,"inconclusive: 6.51 µM [activator, single point]"
CC(C)(C)C(=O)CSc1nc(N)cc(=O)[nH]1,inactive: 23.5%,–
Cc1cc(NCc2ccccc2)nc2ccccc12,–,"inconclusive: 20.6 µM [activator, partial curve, poor fit]"
CCN(CC)S(=O)(=O)c1ccc2c(c1)N(CC(=O)Nc1cccnc1Cl)C(=O)CO2,–,"inconclusive: 1.03 µM [inhibitor, single point]"
Cc1oc2ccccc2c1-c1cn2c(n1)SCC2,inactive: 18.5%,–
Cc1ccc(-c2noc(-c3cc4ccccc4oc3=O)n2)cc1,–,"inconclusive: 18.4 µM [activator, single point]"
Cc1cc(NC(=O)CSc2nc3c(sc4ccccc43)c(=O)n2CCc2ccccc2)n[nH]1,–,"inconclusive: 29.1 µM [activator, single point]"
COc1ccccc1C1=NOC(CN2C(=O)c3ccccc3S2(=O)=O)C1 (centres undefined),–,"inconclusive: 16.4 µM [activator, partial curve]"
CC1CCCC(C)N1C(=O)COC(=O)/C=C/c1ccco1 (centres undefined),–,"inconclusive: 23.1 µM [activator, single point]"
O=C(CCCN1C(=O)S/C(=C\C=C\c2ccccc2)C1=O)Nc1ccc(C(=O)O)cc1,–,"inconclusive: 16.4 µM [activator, partial curve]"
O=C(CCCOc1ccccc1)NCCc1nc2ccccc2[nH]1,–,"inconclusive: 20.6 µM [activator, partial curve, poor fit]"
Cc1ccc(OCC(=O)NC2CCCC(C)C2C)c([N+](=O)[O-])n1 (centres undefined),–,"inconclusive: 3.66 µM [inhibitor, single point]"
O=C(Cc1ccc(Cl)cc1)Nc1cccc(C(=O)Nc2ccccc2C(=O)O)c1,–,"inconclusive: 29.1 µM [activator, partial curve, poor fit]"
COc1cc(/C=N/NC(=O)c2ccc(F)cc2)ccc1OC(=O)c1ccco1,–,"inconclusive: 20.6 µM [activator, single point]"
COc1ccc(CCNc2nc(C)cc(C)n2)cc1OC,inactive: -0.316%,–
Cc1c(NC(=O)c2ccc3c(c2)C(=O)N(CC2CCCO2)C3=O)cccc1C(=O)O (centres undefined),–,"inconclusive: 20.6 µM [activator, single point]"
CCOC(=O)C1=C(COC(=O)/C=C/c2ccc([N+](=O)[O-])cc2)NC(=O)NC1C (centres undefined),inactive: -10.5%,–
O=C(Nc1ncccc1O)c1cc2ccccc2o1,–,"inconclusive: 0.58 µM [activator, partial curve, poor fit]"
NC(=O)c1ccc(NC(=O)Nc2ccc3c(c2)OCO3)cc1,–,"inconclusive: 16.4 µM [activator, partial curve]"
COc1ccc(N(CCC#N)S(=O)(=O)c2ccc(Cl)cc2)cc1,–,"inconclusive: 29.1 µM [activator, partial curve, poor fit]"
CCOc1ccccc1C(=O)NC(C(=O)N(C)Cc1ccc2c(c1)OCO2)C(C)C (centres undefined),inactive: -17.6%,–
Fc1ccc(N=C2NN=C(c3cc(F)ccc3F)CS2)cc1,–,"inconclusive: 32.6 µM [inhibitor, single point]"
O=C(N/N=C/c1ccccc1Cl)c1n[nH]c2c1CCCC2,–,"inconclusive: 0.146 µM [activator, partial curve]"
